Structures can show the parent of a compound that is named as a salt. This is one part of the list. Many values rest on one well or one pass, so single values are uncertain.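 Labelled rat cortical synaptosomes were engulfed by primary human fetal astrocytes. Engulfment equaled a red/green ratio, corrected for calcein live-cell signal and normalized to the plate median. Compounds were toxic when calcein dropped over 30%, and reduced phagocytosis when below 70% of the median above 5 µM.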
What was measured:
Settings in all cases: 24 h
[1] = tested on: Human fetal astrocytes; test: loss of total cells relative to no-compound high-control median (toxicity); higher = more toxic (fewer cells)
[2] = tested on: Human fetal astrocytes; test: as above; remark: listed apart in the source
[3] = tested on: Human fetal astrocytes; test: synaptosome phagocytosis (pHrodo/calcein intensity ratio) relative to plate median of data wells; higher = more phagocytosis
[4] = tested on: Human fetal astrocytes; test: as above; remark: listed apart in the source

Row | SMILES | loss of total cells ([1]; 1.39 µM) [%] | loss of total cells ([1]; 2.78 µM) [%] | loss of total cells ([1]; 5.56 µM) [%] | loss of total cells ([1]; 11.11 µM) [%] | loss of total cells ([1]; 22.22 µM) [%] | loss of total cells ([2]; 1.39 µM) [%] | loss of total cells ([2]; 2.78 µM) [%] | loss of total cells ([2]; 5.56 µM) [%] | loss of total cells ([2]; 11.11 µM) [%] | loss of total cells ([2]; 22.22 µM) [%] | synaptosome phagocytosis ([3]; 1.39 µM) [%] | synaptosome phagocytosis ([3]; 2.78 µM) [%] | synaptosome phagocytosis ([3]; 5.56 µM) [%] | synaptosome phagocytosis ([3]; 11.11 µM) [%] | synaptosome phagocytosis ([3]; 22.22 µM) [%] | synaptosome phagocytosis ([4]; 1.39 µM) [%] | synaptosome phagocytosis ([4]; 2.78 µM) [%] | synaptosome phagocytosis ([4]; 5.56 µM) [%] | synaptosome phagocytosis ([4]; 11.11 µM) [%] | synaptosome phagocytosis ([4]; 22.22 µM) [%]
1 | O=C(C1CCCCC1)N1CC(=O)N2CCc3ccccc3C2C1 (stereo not given) [Praziquantel] | -27 | -8.6 | 8.9 | 18.1 | 11.2 | 3.3 | 5.8 | -16.7 | -3.7 | 1.5 | 88.5 | 98.6 | 94.8 | 115 | 114 | 100 | 115 | 102 | 97.9 | 88.4
2 | Cc1cc(N)c2ccccc2[n+]1CCCCCCCCCC[n+]1c(C)cc(N)c2ccccc21 [Dequalinium dichloride] | -13 | -27.4 | 11.5 | 3.1 | 8.8 | 10.5 | 22.7 | -3.6 | 11.3 | 44.7 | 120 | 116 | 63.1 | 51.8 | 43.8 | 73.9 | 89 | 54.6 | 55.1 | 41.1
3 | Cc1cnc(C(=O)NCCc2ccc(S(=O)(=O)NC(=O)NC3CCCCC3)cc2)cn1 [Glipizide] | 5.4 | -18.8 | -3.3 | -30.9 | -11.2 | 17.7 | -54.8 | 18.6 | -3 | 17.1 | 101 | 78.2 | 108 | 81.8 | 109 | 147 | 101 | 120 | 90.1 | 91.3
4 | COc1ccc(Cl)cc1C(=O)NCCc1ccc(S(=O)(=O)NC(=O)NC2CCCCC2)cc1 [Glibenclamide] | -4.6 | -25.6 | 0.8 | -20.2 | 6.4 | -9.8 | 8.6 | -8.4 | 33.5 | 4.8 | 121 | 121 | 80.6 | 144 | 105 | 92.6 | 134 | 120 | 104 | 139
5 | CC(C[N+](C)(C)C)OC(N)=O (stereo not given) [Bethanechol chloride] | -13.9 | -10.8 | -2.3 | -13.9 | -11.7 | -24.9 | -24.7 | -1.5 | -18 | -5.7 | 108 | 100 | 117 | 99.7 | 90 | 125 | 117 | 115 | 87.3 | 96.8
6 | COCCOC(=O)C1=C(C)NC(C)=C(C(=O)OC(C)C)C1c1cccc([N+](=O)[O-])c1 (stereo not given) [Nimodipine] | -11.8 | 12.2 | 9.9 | 5.7 | 21.5 | -29 | -33.3 | -8.1 | 18.7 | -1.6 | 108 | 84.7 | 106 | 98.1 | 98.6 | 110 | 125 | 104 | 83.8 | 95.1
7 | CCC(NC(C)C)C(O)c1ccc(O)c(O)c1 (stereo not given) [Isotharine mesylate] | -3.3 | -0.5 | 9.9 | 12.4 | 24.3 | -19.9 | -8.6 | -20.6 | 0.6 | 7.8 | 96.7 | 88.8 | 90.6 | 72.2 | 59.1 | 99.7 | 96 | 121 | 84.9 | 84.9
8 | CN1C(=O)CC[C@H]1c1cccnc1 [(-)-Cotinine] | -23.1 | -12.9 | -28.1 | -20.2 | -7.1 | 6.2 | -22 | -7.7 | 2 | -7 | 113 | 111 | 116 | 108 | 121 | 124 | 81.4 | 92.4 | 115 | 83
9 | COc1cc2nc(N3CCN(C(=O)C4CCCO4)CC3)nc(N)c2cc1OC (stereo not given) [Terazosin hydrochloride] | -3.4 | 5.1 | -11.2 | -29.5 | -14 | -21.8 | -42.9 | 12.4 | 27.2 | -0.3 | 105 | 91.9 | 127 | 123 | 117 | 101 | 108 | 70.7 | 100 | 95.2
10 | NC(N)=NC(N)=Nc1ccccc1 [1-Phenylbiguanide] | -26.4 | -20.7 | -5.6 | -14.9 | -28 | -17.2 | -4 | -6.6 | 1.4 | 11.9 | 119 | 67.2 | 106 | 113 | 110 | 106 | 101 | 97.2 | 115 | 150
11 | CCCCOc1cc(CC2CNC(=O)N2)ccc1OC (stereo not given) | -7.7 | -17.1 | -9.7 | 11.2 | 9.4 | -10.7 | -10.5 | -13.2 | 17.6 | 31.9 | 88.2 | 89.6 | 72.6 | 120 | 144 | 96.3 | 87.8 | 108 | 102 | 108
12 | Cc1scc2c1N(C(=O)CN1CCN(C)CC1)c1ccccc1NC2=O [Telenzepine dihydrochloride] | -22 | -36.8 | -1.1 | 12.6 | 0.8 | 6.1 | 25.6 | 13.8 | 5.4 | 15.9 | 83.9 | 159 | 94.8 | 104 | 166 | 98.7 | 85.5 | 95.6 | 103 | 89.7
13 | CC(=O)OCC1=C(C(=O)O)N2C(=O)[C@@H](NC(=O)CSc3ccncc3)[C@H]2SC1 [Cephapirin sodium] | -18 | -18.3 | 2.3 | -18.4 | -3.4 | -28.2 | 7 | -3.9 | -43 | -8.5 | 92.7 | 91.4 | 76.8 | 154 | 115 | 97.7 | 93 | 106 | 96 | 89.5
14 | NS(=O)(=O)c1cc2c(cc1Cl)NCNS2(=O)=O [Hydrochlorothiazide] | 9.6 | -17.1 | 0.8 | -10.3 | -1.6 | -2.7 | -4.4 | -21.6 | 0.3 | 4.6 | 104 | 124 | 92 | 90.2 | 87.6 | 99.8 | 78.7 | 97.2 | 90.7 | 119
15 | C[C@H]1C[C@H]2[C@@H]3CCC4=CC(=O)C=C[C@]4(C)[C@@]3(F)[C@@H](O)C[C@]2(C)[C@@]1(O)C(=O)CO [Betamethasone] | -15 | -22.6 | -4.1 | -22.9 | -16.9 | -9.1 | -5.8 | 1.5 | -25 | -5.7 | 66.6 | 101 | 112 | 99 | 118 | 217 | 112 | 119 | 103 | 91
16 | O=c1[nH]cc(F)c(=O)[nH]1 [5-Fluorouracil] | 5.4 | 5.1 | -18.1 | -5.8 | 0.8 | -3.3 | -9.8 | -6.3 | 4.9 | 48.9 | 102 | 118 | 110 | 130 | 125 | 92.1 | 138 | 95.3 | 136 | 114
17 | O=C(/C=C/c1ccc(O)c(O)c1)OCCc1ccccc1 [Caffeic acid phenethyl ester] | -13.2 | -8.7 | 16.1 | 6.7 | 12.4 | 22 | 33.6 | 36.2 | 44.8 | 40.9 | 50.4 | 82.9 | 88.7 | 44.6 | 58.6 | 44.5 | 91.5 | 81.9 | 64.8 | 72.2
18 | Nc1nnc(-c2cccc(Cl)c2Cl)c(N)n1 [Lamotrigine] | -7.1 | -11.3 | -14.6 | 1 | 19.6 | -45.2 | -42.1 | -11.2 | 8.2 | 0.9 | 118 | 96.3 | 114 | 88.3 | 99 | 123 | 100 | 106 | 118 | 99.7
19 | CNC(=C[N+](=O)[O-])NCCSCc1ccc(CN(C)C)o1 [Ranitidine hydrochloride] | -7.1 | -21.3 | -11.8 | -12.6 | 0.8 | -21.6 | -9.5 | 9.3 | 7.8 | 5.7 | 84.1 | 100 | 105 | 80.1 | 102 | 101 | 98.5 | 90.3 | 126 | 90.3
20 | CN(C)CCC(c1ccc(Br)cc1)c1ccccn1 (racemic) [(±)-Brompheniramine maleate] | 6.2 | 0 | -12.4 | 22 | 26.7 | -28.2 | 25.4 | 12.4 | 45.6 | 5.9 | 49.9 | 131 | 93.3 | 131 | 114 | 129 | 142 | 98.1 | 110 | 111
21 | CCN(CC)C(=S)SSC(=S)N(CC)CC [Tetraethylthiuram disulfide] | 32.6 | 27.8 | 40.4 | 40.2 | 19.8 | 38.3 | 41 | 14.6 | 23.3 | 70.2 | 22.1 | 29.8 | 21.5 | 38.6 | 30.3 | 47.3 | 26.2 | 53.7 | 24 | 37
22 | NCCc1ccc(O)c(O)c1 [Dopamine hydrochloride] | 1.3 | -4.3 | -17.3 | -8.5 | -7.2 | -8 | -25.4 | -25.1 | 5.5 | -5.8 | 88.2 | 104 | 61.9 | 114 | 86.1 | 95.2 | 127 | 85 | 113 | 102
23 | CN(C)CCOC(C)(c1ccccc1)c1ccccn1 (stereo not given) [Doxylamine succinate] | 1.3 | -7.7 | 14 | -11.2 | -16 | 3.9 | -22 | -13.9 | 0.3 | -24 | 105 | 99.5 | 93 | 94.5 | 81.2 | 103 | 92.2 | 108 | 113 | 112

Some of these compounds in order of SMILES length, largest number first:
Row | SMILES | loss of total cells ([1]; 1.39 µM) [%] | loss of total cells ([1]; 2.78 µM) [%] | loss of total cells ([1]; 5.56 µM) [%] | loss of total cells ([1]; 11.11 µM) [%] | loss of total cells ([1]; 22.22 µM) [%] | loss of total cells ([2]; 1.39 µM) [%] | loss of total cells ([2]; 2.78 µM) [%] | loss of total cells ([2]; 5.56 µM) [%] | loss of total cells ([2]; 11.11 µM) [%] | loss of total cells ([2]; 22.22 µM) [%] | synaptosome phagocytosis ([3]; 1.39 µM) [%] | synaptosome phagocytosis ([3]; 2.78 µM) [%] | synaptosome phagocytosis ([3]; 5.56 µM) [%] | synaptosome phagocytosis ([3]; 11.11 µM) [%] | synaptosome phagocytosis ([3]; 22.22 µM) [%] | synaptosome phagocytosis ([4]; 1.39 µM) [%] | synaptosome phagocytosis ([4]; 2.78 µM) [%] | synaptosome phagocytosis ([4]; 5.56 µM) [%] | synaptosome phagocytosis ([4]; 11.11 µM) [%] | synaptosome phagocytosis ([4]; 22.22 µM) [%]
2 | Cc1cc(N)c2ccccc2[n+]1CCCCCCCCCC[n+]1c(C)cc(N)c2ccccc21 [Dequalinium dichloride] | -13 | -27.4 | 11.5 | 3.1 | 8.8 | 10.5 | 22.7 | -3.6 | 11.3 | 44.7 | 120 | 116 | 63.1 | 51.8 | 43.8 | 73.9 | 89 | 54.6 | 55.1 | 41.1
23 | CN(C)CCOC(C)(c1ccccc1)c1ccccn1 (stereo not given) [Doxylamine succinate] | 1.3 | -7.7 | 14 | -11.2 | -16 | 3.9 | -22 | -13.9 | 0.3 | -24 | 105 | 99.5 | 93 | 94.5 | 81.2 | 103 | 92.2 | 108 | 113 | 112
10 | NC(N)=NC(N)=Nc1ccccc1 [1-Phenylbiguanide] | -26.4 | -20.7 | -5.6 | -14.9 | -28 | -17.2 | -4 | -6.6 | 1.4 | 11.9 | 119 | 67.2 | 106 | 113 | 110 | 106 | 101 | 97.2 | 115 | 150
